Measured values taken from paper PMC9561274.
No constants are given. Whether binding was seen depends on the method and setting. For some of these results: In cells and extracts the contact can be indirect. Some entries that bind do so weakly or less than the wild type. For some of these results: Tags and fused reporters may be left off the sequences shown.

T1: GST-CtIP (aa 700–799) (human) (UniProt Q99708)
T1 sequence: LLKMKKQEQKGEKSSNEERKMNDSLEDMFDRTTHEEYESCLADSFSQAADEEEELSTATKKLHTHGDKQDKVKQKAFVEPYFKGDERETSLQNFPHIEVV


What was measured:
[1] = molecular target: C-terminal region of CtIP (aa 500–897) (human) (UniProt Q99708); experiment: two-hybrid; yeast two-hybrid screen for proteins that interact with the C-terminal region of CtIP (aa 500–897)
[2] = molecular target: endogenous CtIP (human (endogenous in HeLa)) (UniProt Q99708); experiment: co-IP; endogenous proteins in HeLa lysates, untreated, 30 min after IR or 3 h after HU; immunoprecipitation of either partner, immunoblot
[3] = molecular target: T1, GST-CtIP (aa 700–799) (human); experiment: pull-down; bacterially expressed GST fusions immobilized on Glutathione Sepharose 4B beads, incubated with HeLa lysates (TEN100 buffer) 3 h at 4°C, washed with NTEN buffer (300 mM NaCl, 0.5% NP-40), immunoblot; only the target purified

binding [1] | binding [2] | binding [3] | Binder
binds |  |  | SIAH1 (protein, UniProt Q8IUQ4 1-282) MSRQTATALPTGTSKCPPSQRVPALTGTTASNNDLASLFECPVCFDYVLPPILQCQSGHLVCSNCRPKLTCCPTCRGPLGSIRNLAMEKVANSVLFPCKYASSGCEITLPHTEKADHEELCEFRPYSCPCPGASCKWQGSLDAVMPHLMHQHKSITTLQGEDIVFLATDINLPGAVDWVMMQSCFGFHFMLVLEKQEKYDGHQQFFAIVQLIGTRKQAENFAYRLELNGHRRRLTWEATPRSIHEGIATAIMNSDCLVFDTSIAQLFAENGNLGINVTISMC
 | binds | binds | endogenous SIAH2 (protein, UniProt O43255 1-324) MSRPSSTGPSANKPCSKQPPPQPQHTPSPAAPPAAATISAAGPGSSAVPAAAAVISGPGGGGGAGPVSPQHHELTSLFECPVCFDYVLPPILQCQAGHLVCNQCRQKLSCCPTCRGALTPSIRNLAMEKVASAVLFPCKYATTGCSLTLHHTEKPEHEDICEYRPYSCPCPGASCKWQGSLEAVMSHLMHAHKSITTLQGEDIVFLATDINLPGAVDWVMMQSCFGHHFMLVLEKQEKYEGHQQFFAIVLLIGTRKQAENFAYRLELNGNRRRLTWEATPRSIHDGVAAAIMNSDCLVFDTAIAHLFADNGNLGINVTISTCCP
binds |  |  | SIAH2 (protein, UniProt O43255 1-324) MSRPSSTGPSANKPCSKQPPPQPQHTPSPAAPPAAATISAAGPGSSAVPAAAAVISGPGGGGGAGPVSPQHHELTSLFECPVCFDYVLPPILQCQAGHLVCNQCRQKLSCCPTCRGALTPSIRNLAMEKVASAVLFPCKYATTGCSLTLHHTEKPEHEDICEYRPYSCPCPGASCKWQGSLEAVMSHLMHAHKSITTLQGEDIVFLATDINLPGAVDWVMMQSCFGHHFMLVLEKQEKYEGHQQFFAIVLLIGTRKQAENFAYRLELNGNRRRLTWEATPRSIHDGVAAAIMNSDCLVFDTAIAHLFADNGNLGINVTISTCCP
